Reference: patent US20140161799A1 (ARCH ONCOLOGY, published 2014)
No constants are given. Whether binding was seen depends on the method and setting. Some binding calls cover weakened binding; strength is not graded here.

The chains behind the UniProt entries cited, without tags or fusion partners. Residues count along the entry.
UniProt Q08722, residues 19-323: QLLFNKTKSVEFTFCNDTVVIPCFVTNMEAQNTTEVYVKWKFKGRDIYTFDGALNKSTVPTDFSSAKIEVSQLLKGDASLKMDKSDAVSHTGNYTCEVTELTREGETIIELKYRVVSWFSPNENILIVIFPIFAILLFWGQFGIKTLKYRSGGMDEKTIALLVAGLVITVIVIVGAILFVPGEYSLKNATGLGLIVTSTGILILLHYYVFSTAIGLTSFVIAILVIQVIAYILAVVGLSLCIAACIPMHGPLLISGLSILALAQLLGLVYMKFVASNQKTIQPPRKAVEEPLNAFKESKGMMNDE

Legend:
Assay in all cases: flow cytometry on RBCs
[1] = target: T1, human CD47 (human, UniProt Q08722 19-323)
T1 construct: whole, on cells; also called CD47 on human red blood cells

[2] = target: T2, rat CD47 (rat, UniProt P97829 19-303)
T2 construct: whole, on cells; also called CD47 on rat red blood cells
T2 sequence (looked up): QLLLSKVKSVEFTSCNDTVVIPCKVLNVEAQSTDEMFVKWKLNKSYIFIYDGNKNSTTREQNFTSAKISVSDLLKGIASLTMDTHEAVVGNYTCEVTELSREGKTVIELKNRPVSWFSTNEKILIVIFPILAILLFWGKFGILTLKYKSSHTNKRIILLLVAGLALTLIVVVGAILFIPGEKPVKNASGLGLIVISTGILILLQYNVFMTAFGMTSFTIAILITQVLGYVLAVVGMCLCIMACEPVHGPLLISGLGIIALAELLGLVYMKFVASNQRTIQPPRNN

[3] = target: T3, mouse CD47 (mouse, UniProt Q61735 19-303)
T3 construct: whole, on cells; also called CD47 on mouse red blood cells
T3 sequence (looked up): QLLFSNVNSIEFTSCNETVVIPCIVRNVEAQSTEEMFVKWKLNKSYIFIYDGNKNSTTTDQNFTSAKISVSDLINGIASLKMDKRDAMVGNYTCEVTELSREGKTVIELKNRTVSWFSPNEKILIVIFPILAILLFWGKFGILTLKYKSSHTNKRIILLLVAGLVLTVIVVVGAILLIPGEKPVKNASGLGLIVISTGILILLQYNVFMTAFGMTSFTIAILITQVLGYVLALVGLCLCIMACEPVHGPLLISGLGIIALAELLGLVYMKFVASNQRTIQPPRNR

[4] = target: T4, pig CD47 (pig, UniProt Q9GKE8 19-303)
T4 construct: whole, on cells; also called CD47 on pig red blood cells
T4 sequence (looked up): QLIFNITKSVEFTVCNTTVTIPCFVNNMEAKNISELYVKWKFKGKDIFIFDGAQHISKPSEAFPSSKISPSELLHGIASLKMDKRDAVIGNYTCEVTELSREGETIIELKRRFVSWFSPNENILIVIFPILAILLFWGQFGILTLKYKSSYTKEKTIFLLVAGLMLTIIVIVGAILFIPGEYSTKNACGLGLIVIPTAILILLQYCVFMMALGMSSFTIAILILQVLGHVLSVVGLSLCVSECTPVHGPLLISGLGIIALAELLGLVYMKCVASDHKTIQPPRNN

Measured: binding

B1: pVxK7b-037-hum05-LC/pVxK7b-037-hum05-HC (antibody, human IgG1, V domains shown)
VH: QVQLQESGPGLVKPSQTLSLTCTVSGYTFTNYYVFWVRQAPGKGLEWVSDINPVNGDTNFNEKFKNRVTISVDTSKNQFSLKLSSVTAADTAVYYCARGGYTMDYWGQG
VL: DIVMTQTPLSLPVTPGEPASISCRSSQSLVHSNGNTYLHWYLQKPGQSPQLLIYKVSYRFSGVPDRFSGSGSGTDFTLKISRVEAEDVGVYYCSQNTHVPRTFGQG
notes: Full-length human IgG1/kappa in CHO supernatant; Variable entries end within framework 4 (...FGQG / ...WGQG); also called Clone 5
binds: all assays above

B2: pVxK7b-037-hum10-LC/pVxK7b-037-hum10-HC (antibody, human IgG1, V domains shown)
VH: QVQLQESGPGLVKPSQTLSLTCTVSGYTFTNYYVFWVRQARGQRLEWIGDINPVNGDTNFNEKFKNRLTISKDTSKNQVVLTMTNMDPVDTATYYCARGGYTMDYWGQG
VL: DIVMTQTPLSLPVTPGEPASISCRSSQSLVHSNGNTYLHWYLQKPGQSPQLLIYKVSYRFSGVPDRFSGSGSGTDFTLKISRVEAEDVGVYYCSQNTHVPRTFGQG
notes: Full-length human IgG1/kappa in CHO supernatant; Variable entries end within framework 4 (...FGQG / ...WGQG); also called Clone 10
binds: all assays above

B3: pVxK7b-037-hum11-LC/pVxK7b-037-hum11-HC (antibody, human IgG1, V domains shown)
VH: QVQLQESGPGLVKPGATVKISCKVSGYTFTNYYVFWVRQARGQRLEWIGDINPVNGDTNFNEKFKNRVTITADKSTSTAYMELSSLRSEDTAVYYCARGGYTMDYWGQG
VL: EIVLTQSPATLSVSPGERATLSCRSSQSLVHSNGNTYLHWYQQKPGQAPRLLIYKVSYRFSGVPSRFSGSGSGTDFTFTISSLEAEDAATYYCSQNTHVPRTFGQG
notes: Full-length human IgG1/kappa in CHO supernatant; Variable entries end within framework 4 (...FGQG / ...WGQG); also called Clone 11
binds: all assays above

B4: pVxK7b-037-hum22-LC/pVxK7b-037-hum22-HC (antibody, human IgG1, V domains shown)
VH: QVQLQESGPGLVKPSQTLSLTCTVSGYTFTNYYVFWVRQARGQRLEWIGDINPVNGDTNFNEKFKNRLTISKDTSKNQVVLTMTNMDPVDTATYYCARGGYTMDYWGQG
VL: EIVLTQSPATLSVSPGERATLSCRSSQSLVHSNGNTYLHWYQQKPGQAPRLLIYKVSYRFSGVPSRFSGSGSGTDFTFTISSLEAEDAATYYCSQNTHVPRTFGQG
notes: Full-length human IgG1/kappa in CHO supernatant; Variable entries end within framework 4 (...FGQG / ...WGQG); also called Clone 22
binds: all assays above
